Test results: article PMC7350762
These are yes or no findings as the source states them, for the method shown. Binding seen in cells or lysates may run through a third protein. Some results given as binding are weak or reduced against the parent protein; the word gives no strength. For some of these results: Tags and fused reporters may be left off the sequences shown. Each block holds one molecule with its values, some of them ahead of it.

Chains of the proteins cited; added tags and fusions are not shown.
UniProt P51692: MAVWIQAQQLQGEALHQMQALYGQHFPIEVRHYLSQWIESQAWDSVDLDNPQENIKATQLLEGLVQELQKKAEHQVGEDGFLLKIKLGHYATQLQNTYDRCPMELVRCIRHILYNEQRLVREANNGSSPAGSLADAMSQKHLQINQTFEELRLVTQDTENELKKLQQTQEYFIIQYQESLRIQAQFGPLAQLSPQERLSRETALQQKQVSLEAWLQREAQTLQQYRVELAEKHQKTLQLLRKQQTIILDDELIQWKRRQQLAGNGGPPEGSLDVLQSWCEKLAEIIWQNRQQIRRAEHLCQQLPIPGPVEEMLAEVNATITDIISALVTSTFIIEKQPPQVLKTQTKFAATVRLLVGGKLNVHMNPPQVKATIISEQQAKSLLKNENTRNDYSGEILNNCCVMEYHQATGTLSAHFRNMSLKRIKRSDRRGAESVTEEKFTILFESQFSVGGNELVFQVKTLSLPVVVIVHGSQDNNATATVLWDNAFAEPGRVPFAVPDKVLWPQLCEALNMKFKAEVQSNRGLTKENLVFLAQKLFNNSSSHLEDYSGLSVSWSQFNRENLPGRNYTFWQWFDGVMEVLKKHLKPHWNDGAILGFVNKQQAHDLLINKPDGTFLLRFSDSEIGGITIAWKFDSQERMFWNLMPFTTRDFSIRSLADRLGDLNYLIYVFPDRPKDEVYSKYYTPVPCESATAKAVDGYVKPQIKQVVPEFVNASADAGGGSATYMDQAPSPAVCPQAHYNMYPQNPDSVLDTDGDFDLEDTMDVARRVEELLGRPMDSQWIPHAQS

Experiments:
[1] = target: T1, MKL-1 in CD3+ T cells and Treg cells (human (in human CD3+ T cells and Treg cells)) (UniProt Q969V6); test: co-IP; lysates of CD3+ T cells and of Treg cells; specific antibody overnight at 4 °C, Protein A/G Plus-agarose beads, Western blot
T1 sequence: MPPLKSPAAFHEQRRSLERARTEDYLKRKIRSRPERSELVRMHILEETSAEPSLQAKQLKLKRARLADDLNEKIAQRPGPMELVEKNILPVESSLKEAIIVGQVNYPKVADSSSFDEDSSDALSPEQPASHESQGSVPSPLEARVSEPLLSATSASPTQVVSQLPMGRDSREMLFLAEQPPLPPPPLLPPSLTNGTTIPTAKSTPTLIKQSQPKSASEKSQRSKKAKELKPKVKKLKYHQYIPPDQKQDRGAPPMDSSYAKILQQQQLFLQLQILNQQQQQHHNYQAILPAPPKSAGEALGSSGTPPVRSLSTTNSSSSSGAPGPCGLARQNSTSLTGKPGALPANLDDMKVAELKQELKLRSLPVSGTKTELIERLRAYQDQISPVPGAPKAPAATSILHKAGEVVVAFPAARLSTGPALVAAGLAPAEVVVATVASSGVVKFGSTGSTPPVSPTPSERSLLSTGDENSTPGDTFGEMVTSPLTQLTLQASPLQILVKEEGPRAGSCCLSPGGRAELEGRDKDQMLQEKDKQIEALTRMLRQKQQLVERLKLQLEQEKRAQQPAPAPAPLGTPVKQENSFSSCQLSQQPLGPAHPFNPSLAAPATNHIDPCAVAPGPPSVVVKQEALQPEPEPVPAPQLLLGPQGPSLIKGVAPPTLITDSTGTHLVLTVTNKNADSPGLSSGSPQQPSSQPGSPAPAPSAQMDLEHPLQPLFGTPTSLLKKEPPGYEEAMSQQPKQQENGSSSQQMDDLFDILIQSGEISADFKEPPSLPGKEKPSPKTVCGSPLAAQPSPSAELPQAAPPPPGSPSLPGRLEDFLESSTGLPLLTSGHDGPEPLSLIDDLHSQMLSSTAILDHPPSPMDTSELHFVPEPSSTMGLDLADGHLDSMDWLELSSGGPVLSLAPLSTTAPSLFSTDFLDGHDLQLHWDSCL

[2] = target: T2, Myc-tagged MKL-1 (WT-MKL-1) (UniProt Q969V6); test: co-IP; cells transfected with Myc-MKL-1 and HA-SRF along with NR or STAT5b siRNA, or with empty vector or STAT5b and treated with IL-2 or DMSO; controls without antibody or without Myc transfection
T2 sequence: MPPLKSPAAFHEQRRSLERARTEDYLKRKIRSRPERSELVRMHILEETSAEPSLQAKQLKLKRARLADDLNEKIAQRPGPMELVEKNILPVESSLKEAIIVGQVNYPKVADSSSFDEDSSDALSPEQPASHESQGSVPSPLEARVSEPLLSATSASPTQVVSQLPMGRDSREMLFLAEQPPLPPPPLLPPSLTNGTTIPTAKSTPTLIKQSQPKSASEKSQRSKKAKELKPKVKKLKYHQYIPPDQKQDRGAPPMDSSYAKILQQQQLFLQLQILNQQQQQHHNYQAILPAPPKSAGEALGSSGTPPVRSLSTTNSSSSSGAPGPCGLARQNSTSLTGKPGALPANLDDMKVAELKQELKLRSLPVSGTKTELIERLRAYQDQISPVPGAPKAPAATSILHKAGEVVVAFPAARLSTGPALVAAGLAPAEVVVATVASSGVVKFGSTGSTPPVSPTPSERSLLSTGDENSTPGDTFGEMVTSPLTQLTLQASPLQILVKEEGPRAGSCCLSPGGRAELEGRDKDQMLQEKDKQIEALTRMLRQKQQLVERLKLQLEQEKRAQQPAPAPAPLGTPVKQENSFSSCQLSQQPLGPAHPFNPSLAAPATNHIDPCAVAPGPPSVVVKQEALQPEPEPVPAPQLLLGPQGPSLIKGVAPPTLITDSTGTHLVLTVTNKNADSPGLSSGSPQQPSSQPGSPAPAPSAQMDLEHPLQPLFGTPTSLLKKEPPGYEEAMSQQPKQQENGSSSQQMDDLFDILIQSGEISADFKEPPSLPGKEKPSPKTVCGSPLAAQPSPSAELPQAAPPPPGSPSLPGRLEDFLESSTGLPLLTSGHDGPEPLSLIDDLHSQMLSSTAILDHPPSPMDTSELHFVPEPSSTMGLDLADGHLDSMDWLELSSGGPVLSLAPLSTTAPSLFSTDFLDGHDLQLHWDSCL

[3] = target: T2, Myc-tagged MKL-1 (WT-MKL-1); test: co-IP; lysates of CD3+ T cells transfected with Flag-tagged STAT5b and Myc-tagged MKL-1 constructs, with or without IL-2; antibody overnight at 4 °C, Protein A/G Plus-agarose beads, Western blot
[4] = target: T2, Myc-tagged MKL-1 (WT-MKL-1); test: co-IP; cells transfected with Myc-MKL-1 and HA-SRF along with NR or STAT5b siRNA, or with empty vector or STAT5b and treated with IL-2 or DMSO; controls without antibody or without Myc transfection; remark: listed apart in the source

- binding [1]: binds
Molecule: STAT5b in CD3+ T cells and Treg cells (from UniProt P51692 1-787)

- binding [2]: binds
- binding [3]: binds
Molecule: Flag-tagged STAT5b (WT-STAT5b) (from UniProt P51692 1-787)

- binding [4]: binds
B1: HA-SRF (protein, UniProt P11831 1-508)
chain: MLPTQAGAAAALGRGSALGGSLNRTPTGRPGGGGGTRGANGGRVPGNGAGLGPGRLEREAAAAAATTPAPTAGALYSGSEGDSESGEEEELGAERRGLKRSLSEMEIGMVVGGPEASAAATGGYGPVSGAVSGAKPGKKTRGRVKIKMEFIDNKLRRYTTFSKRKTGIMKKAYELSTLTGTQVLLLVASETGHVYTFATRKLQPMITSETGKALIQTCLNSPDSPPRSDPTTDQRMSATGFEETDLTYQVSESDSSGETKDTLKPAFTVTNLPGTTSTIQTAPSTSTTMQVSSGPSFPITNYLAPVSASVSPSAVSSANGTVLKSTGSGPVSSGGLMQLPTSFTLMPGGAVAQQVPVQAIQVHQAPQQASPSRDSSTDLTQTSSSGTVTLPATIMTSSVPTTVGGHMMYPSPHAVMYAPTSGLGDGSLTVLNAFSQAPSTMQVSHSQVQEPGGVPQVFLTASSGTVQIPVSAVQLHQMAVIGQQAGSSSNLTELQVVNLDTAHSTKSE
